Source: PMC7031853
No constants are given. Whether binding was seen depends on the method and setting. In cells and extracts the contact can be indirect. Some entries that bind do so weakly or less than the wild type. Where a sequence is shown, tags or fusion partners need not be part of it.

Biological target: T1, LRIT3 (UniProt W8DXL4)
T1 sequence: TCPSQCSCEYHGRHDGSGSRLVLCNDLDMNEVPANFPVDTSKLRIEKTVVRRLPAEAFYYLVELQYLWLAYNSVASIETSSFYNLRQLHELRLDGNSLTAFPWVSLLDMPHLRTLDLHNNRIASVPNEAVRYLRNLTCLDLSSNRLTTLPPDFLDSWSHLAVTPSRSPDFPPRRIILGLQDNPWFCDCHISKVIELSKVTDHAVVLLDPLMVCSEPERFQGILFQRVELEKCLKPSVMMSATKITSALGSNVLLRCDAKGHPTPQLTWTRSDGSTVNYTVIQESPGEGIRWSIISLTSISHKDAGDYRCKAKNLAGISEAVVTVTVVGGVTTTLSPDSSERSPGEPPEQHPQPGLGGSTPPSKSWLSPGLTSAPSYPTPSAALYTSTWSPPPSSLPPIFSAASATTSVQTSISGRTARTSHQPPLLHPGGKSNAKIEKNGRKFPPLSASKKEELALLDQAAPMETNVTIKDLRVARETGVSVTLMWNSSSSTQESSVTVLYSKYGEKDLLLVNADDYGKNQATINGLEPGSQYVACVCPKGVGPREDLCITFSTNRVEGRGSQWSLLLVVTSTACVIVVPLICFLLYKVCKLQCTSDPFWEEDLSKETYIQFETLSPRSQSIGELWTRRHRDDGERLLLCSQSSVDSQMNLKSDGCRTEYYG
Assay: co-IP; HEK293T cells transfected with pLrit3, pNyx-EYFP or both; NP-40 lysates precipitated with anti-LRIT3 antibody and Dynabeads protein G at 4°C; washed with TBS with 0.3% Tween 20; blots probed with anti-LRIT3 and anti-GFP

binding: binds
B1: EYFP tagged nyctalopin fusion protein (protein, UniProt P83503 19-476)
chain: TEACLRACPAACTCSHVERGCSVRCDRAGLQRVPQEFPCEAASIDLDRNGLRILGERAFGTLPSLRRLSLRHNNLSFITPGAFKGLPRLAELRLAHNGELRYLHVRTFAALGRLRRLDLAACRLFSVPERLLAELPALRELTAFDNLFRRVPGALRGLANLTHAHFERSRIEAVASGSLLGMRRLRSLSLQANRVRAVHAGAFGDCGALEDLLLNDNLLATLPAAAFRGLRRLRTLNLGGNALGSVARAWFSDLAELELLYLDRNSITFVEEGAFQNLSGLLALHLNGNRLTVLSWAAFQPGFFLGRLFLFRNPWRCDCQLEWLRDWMEGSGRVADVACASPGSVAGQDLSQVVFERSSDGLCVDPDELNFTTSSPGPSPEPVATTVSRFSSLLSKLLAPRAPVEEVANTTWELVNVSLNDSFRSHAVMVFCYKATFLFTSCVLLSLAQYVVVGLQRE
